Results as given in the supplement of paper PMC10849652.
This is one part of the list. Residues, ends and D or L forms follow the SMILES beside them. *: point of attachment. Cbz = O=C(OCc1ccccc1)*

Sequences of proteins named here, by UniProt entry; tags and fusion partners are left off. A change or cut given only in a name is not applied to a line headed by its entry.
UniProt P55327: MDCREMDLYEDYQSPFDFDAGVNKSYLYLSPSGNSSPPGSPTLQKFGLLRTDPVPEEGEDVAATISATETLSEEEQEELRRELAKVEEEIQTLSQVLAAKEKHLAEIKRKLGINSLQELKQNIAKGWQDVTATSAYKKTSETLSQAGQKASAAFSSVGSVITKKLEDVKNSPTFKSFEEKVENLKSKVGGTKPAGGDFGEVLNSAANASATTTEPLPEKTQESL
UniProt Q14142: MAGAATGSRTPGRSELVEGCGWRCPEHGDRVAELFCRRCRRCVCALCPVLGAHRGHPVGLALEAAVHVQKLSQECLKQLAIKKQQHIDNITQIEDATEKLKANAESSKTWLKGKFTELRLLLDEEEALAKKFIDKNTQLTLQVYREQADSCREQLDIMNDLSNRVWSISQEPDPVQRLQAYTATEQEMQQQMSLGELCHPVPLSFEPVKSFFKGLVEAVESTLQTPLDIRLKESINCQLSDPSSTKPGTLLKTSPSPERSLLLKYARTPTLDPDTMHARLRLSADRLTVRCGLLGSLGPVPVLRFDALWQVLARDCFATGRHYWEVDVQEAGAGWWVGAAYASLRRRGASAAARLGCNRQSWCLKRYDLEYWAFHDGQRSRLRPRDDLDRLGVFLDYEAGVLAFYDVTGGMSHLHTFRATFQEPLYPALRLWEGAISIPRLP
UniProt P22105: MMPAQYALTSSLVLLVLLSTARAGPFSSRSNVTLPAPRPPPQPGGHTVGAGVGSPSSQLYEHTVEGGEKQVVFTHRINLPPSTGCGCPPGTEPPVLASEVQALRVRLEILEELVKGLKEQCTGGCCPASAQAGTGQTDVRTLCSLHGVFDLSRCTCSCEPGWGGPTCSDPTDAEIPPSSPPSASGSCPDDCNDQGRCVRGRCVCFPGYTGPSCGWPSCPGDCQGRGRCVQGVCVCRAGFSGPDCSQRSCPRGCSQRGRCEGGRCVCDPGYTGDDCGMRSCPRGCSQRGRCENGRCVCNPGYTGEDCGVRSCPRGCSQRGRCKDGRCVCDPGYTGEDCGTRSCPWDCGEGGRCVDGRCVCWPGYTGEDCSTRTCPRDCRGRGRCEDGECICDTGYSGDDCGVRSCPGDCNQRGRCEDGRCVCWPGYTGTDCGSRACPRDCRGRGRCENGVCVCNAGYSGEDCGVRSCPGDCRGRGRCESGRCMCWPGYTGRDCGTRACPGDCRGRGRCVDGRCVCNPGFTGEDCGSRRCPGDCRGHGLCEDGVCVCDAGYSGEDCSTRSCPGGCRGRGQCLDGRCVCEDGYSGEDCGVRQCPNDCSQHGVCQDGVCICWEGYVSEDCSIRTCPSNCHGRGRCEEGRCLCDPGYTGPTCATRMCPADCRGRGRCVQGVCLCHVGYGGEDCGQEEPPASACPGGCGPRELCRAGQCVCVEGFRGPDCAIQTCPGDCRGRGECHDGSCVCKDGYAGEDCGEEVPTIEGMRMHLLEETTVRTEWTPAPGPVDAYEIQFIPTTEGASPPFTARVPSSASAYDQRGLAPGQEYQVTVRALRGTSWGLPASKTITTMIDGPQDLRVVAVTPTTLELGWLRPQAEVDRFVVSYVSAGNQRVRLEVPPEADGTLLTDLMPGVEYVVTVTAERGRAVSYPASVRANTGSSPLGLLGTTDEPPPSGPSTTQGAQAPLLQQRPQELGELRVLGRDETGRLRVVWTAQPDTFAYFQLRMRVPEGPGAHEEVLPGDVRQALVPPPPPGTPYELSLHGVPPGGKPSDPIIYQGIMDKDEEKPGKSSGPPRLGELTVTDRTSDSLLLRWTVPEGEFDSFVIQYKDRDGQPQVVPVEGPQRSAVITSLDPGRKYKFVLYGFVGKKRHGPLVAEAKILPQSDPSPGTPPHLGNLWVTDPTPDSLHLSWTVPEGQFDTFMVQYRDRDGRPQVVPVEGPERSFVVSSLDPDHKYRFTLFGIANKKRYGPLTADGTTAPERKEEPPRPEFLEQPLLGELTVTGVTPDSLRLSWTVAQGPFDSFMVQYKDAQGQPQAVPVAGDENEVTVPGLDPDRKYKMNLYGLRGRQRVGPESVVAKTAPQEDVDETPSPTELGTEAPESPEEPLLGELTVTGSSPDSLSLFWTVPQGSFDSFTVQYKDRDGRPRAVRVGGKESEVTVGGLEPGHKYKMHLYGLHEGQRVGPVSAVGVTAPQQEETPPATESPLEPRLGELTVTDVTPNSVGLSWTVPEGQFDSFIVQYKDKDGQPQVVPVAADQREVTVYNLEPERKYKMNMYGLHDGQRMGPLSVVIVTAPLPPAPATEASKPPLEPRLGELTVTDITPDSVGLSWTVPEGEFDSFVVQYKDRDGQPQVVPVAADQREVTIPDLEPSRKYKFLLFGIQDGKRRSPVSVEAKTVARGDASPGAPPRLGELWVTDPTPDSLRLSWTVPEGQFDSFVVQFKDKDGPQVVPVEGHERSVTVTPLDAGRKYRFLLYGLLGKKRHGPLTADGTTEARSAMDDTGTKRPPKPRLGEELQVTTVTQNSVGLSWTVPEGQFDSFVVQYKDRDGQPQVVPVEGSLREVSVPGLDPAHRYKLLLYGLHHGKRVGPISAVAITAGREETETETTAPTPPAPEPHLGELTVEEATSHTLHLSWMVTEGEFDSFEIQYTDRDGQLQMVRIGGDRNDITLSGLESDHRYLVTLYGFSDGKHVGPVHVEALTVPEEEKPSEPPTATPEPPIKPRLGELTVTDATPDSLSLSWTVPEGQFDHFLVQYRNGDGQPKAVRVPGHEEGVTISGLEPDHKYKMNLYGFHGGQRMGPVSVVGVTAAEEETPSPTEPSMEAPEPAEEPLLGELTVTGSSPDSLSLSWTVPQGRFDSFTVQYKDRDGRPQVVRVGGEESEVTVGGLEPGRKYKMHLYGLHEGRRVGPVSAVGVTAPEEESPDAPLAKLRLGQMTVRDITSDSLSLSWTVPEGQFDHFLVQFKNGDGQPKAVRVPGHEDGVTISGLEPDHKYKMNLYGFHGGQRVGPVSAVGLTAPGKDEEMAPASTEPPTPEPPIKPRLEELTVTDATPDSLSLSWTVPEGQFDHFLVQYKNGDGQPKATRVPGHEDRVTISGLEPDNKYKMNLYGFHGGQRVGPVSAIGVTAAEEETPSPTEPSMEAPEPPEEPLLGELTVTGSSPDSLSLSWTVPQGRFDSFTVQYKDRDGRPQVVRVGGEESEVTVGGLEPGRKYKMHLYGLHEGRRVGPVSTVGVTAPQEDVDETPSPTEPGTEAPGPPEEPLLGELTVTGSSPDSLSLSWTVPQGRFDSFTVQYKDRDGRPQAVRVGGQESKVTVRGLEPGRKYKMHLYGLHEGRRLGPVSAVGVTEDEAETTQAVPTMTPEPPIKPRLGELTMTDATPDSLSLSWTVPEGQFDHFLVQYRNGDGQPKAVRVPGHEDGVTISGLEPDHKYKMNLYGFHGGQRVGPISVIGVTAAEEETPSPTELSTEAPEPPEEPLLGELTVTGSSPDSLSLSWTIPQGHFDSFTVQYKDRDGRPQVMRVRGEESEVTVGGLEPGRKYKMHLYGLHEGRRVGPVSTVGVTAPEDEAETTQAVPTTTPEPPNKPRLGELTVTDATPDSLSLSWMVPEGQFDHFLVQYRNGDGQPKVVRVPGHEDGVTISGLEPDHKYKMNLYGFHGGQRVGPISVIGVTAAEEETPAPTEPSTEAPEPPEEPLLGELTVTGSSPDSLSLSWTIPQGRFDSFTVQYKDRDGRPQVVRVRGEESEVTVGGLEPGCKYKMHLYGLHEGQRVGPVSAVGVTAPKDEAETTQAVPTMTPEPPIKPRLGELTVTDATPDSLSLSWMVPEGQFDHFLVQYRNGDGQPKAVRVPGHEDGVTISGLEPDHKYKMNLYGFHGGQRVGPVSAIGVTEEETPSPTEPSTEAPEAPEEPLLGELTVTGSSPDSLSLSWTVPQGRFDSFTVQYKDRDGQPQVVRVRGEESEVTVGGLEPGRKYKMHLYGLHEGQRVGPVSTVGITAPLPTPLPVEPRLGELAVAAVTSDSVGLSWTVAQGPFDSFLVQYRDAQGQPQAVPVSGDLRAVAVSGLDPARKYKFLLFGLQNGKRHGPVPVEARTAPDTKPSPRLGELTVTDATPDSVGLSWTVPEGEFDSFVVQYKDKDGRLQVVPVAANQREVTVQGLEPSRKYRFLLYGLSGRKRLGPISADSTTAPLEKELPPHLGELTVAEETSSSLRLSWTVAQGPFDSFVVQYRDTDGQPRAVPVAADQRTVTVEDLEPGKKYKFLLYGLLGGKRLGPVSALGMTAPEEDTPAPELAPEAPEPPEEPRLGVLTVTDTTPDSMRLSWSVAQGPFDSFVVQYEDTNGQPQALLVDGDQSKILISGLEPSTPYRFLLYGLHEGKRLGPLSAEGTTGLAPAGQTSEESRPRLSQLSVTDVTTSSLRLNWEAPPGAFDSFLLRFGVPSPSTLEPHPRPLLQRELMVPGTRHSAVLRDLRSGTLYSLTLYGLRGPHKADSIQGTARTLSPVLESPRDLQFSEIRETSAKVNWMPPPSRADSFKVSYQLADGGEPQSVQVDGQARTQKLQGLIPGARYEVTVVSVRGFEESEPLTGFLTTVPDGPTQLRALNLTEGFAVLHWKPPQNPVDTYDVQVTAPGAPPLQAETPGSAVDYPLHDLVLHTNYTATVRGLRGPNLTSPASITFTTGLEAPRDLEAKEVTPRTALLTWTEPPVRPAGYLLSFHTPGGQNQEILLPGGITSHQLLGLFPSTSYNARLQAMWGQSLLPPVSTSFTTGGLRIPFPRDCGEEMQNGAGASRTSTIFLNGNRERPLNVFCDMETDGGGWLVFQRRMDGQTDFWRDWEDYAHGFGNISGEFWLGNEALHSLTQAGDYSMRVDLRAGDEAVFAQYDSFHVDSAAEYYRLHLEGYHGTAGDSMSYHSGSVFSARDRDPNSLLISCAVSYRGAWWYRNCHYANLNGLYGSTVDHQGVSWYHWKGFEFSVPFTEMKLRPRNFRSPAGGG
UniProt Q12815: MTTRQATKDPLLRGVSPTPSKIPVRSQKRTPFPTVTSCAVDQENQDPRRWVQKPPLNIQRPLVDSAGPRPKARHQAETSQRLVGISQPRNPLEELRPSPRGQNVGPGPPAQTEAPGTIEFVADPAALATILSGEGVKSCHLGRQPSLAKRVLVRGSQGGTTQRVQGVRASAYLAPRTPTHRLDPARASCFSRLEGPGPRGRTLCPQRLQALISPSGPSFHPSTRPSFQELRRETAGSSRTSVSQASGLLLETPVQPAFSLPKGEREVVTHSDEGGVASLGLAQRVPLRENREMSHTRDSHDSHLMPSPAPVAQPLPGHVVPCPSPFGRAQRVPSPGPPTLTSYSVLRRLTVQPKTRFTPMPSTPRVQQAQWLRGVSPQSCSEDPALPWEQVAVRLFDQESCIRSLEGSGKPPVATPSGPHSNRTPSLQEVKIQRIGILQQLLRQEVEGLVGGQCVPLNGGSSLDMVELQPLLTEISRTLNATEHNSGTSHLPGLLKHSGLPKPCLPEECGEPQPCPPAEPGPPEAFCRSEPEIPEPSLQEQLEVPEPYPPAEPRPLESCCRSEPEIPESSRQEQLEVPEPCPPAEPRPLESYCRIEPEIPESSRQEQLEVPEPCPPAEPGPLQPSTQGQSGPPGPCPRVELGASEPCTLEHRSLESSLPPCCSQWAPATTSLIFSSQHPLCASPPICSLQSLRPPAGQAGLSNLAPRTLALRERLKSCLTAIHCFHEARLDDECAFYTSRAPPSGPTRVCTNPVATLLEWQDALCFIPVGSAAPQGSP
UniProt Q86TN4: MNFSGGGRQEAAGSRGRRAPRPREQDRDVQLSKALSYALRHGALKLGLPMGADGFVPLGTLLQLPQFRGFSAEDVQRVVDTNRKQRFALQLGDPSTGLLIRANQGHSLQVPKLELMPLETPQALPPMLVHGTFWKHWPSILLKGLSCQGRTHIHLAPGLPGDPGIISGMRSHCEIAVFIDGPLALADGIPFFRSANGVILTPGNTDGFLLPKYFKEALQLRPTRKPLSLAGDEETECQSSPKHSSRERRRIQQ
UniProt Q629K1: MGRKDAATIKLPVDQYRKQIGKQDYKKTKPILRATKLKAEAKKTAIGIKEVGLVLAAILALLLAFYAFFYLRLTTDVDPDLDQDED
UniProt Q15035: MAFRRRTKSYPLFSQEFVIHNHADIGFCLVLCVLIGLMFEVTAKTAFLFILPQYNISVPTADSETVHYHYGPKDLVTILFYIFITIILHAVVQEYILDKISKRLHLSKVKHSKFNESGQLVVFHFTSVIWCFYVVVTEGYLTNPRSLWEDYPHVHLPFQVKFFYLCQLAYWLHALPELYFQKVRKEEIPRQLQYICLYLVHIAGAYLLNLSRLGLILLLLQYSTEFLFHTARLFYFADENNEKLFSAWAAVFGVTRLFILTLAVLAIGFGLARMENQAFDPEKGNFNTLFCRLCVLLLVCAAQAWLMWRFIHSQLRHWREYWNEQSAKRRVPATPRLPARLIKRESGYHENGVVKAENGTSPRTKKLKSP

Key:
Test in all cases: log2 fold change, soluble protein after heating vs DMSO (PISA); higher = thermal stabilisation; K562 cells, 10 uM, 30 min; active = over 0.2 and 3.5 SD of the protein, either way, in both replicates (recomputed)
[1] = compound: C1=CC(=C(C=C1Cl)C2=NC3=NC=CN=C3C(=N2)NC4=CC=NC=C4)F
Outline: (§1)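 Quantification of soluble protein used TMTpro 16plex LC-MS/MS, with channel sums equalised. Samples were the supernatant after 21,000xg for 90 min of pooled aliquots from K562 cells (2×10^6 cells/mL) treated with 10 μM compound for 30 min, heated for 3 min over 48°C-58°C, and extracted in PBS with 0.5% NP-40 at 4°C. Values, from duplicates, describe thermal stability against control samples on a log2 fold-change scale.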

[2] = compound: CC(C)(O)CC(=O)NCCn1ccc2ncnc(Nc3ccc(Oc4cccc(C(F)(F)F)c4)c(Cl)c3)c21
Outline: as §1

[3] = compound: CC1=C(C(CC(=O)N1)C2=CC=C(C=C2)C(F)(F)F)C(=O)NC3=C(C=C4C(=C3)C=NN4)F
Outline: as §1

IRAK-1-4 Inhibitor I = compound: C1COCCN1CCN2C3=CC=CC=C3N=C2NC(=O)C4=CC(=CC=C4)[N+](=O)[O-] [IRAK-1-4 Inhibitor I]
Outline: as §1

pinometostat = compound: CC(C)N(C[C@H]1O[C@@H](n2cnc3c(N)ncnc32)[C@H](O)[C@@H]1O)[C@H]1C[C@@H](CCc2nc3cc(C(C)(C)C)ccc3[nH]2)C1 [pinometostat]
Outline: as §1

[4] = compound: C1=CC2=NC=CN=C2C=C1/C=C/3\C(=O)NC(=O)S3
Outline: as §1

ibrutinib = compound: C=CC(=O)N1CCC[C@@H](n2nc(-c3ccc(Oc4ccccc4)cc3)c3c(N)ncnc32)C1 [ibrutinib]
Outline: as §1

erlotinib = compound: C#Cc1cccc(Nc2ncnc3cc(OCCOC)c(OCCOC)cc23)c1 [erlotinib]
Outline: as §1

[5] = compound: C1=CC(=CC=C1C2=NC3=C(N2)C=C(C=C3)C(=O)N)OC4=CC=C(C=C4)Cl
Outline: as §1

[6] = compound: CC(C)C1=C2N=C(C=C(N2N=C1)NCC3=CC=CC=C3)NCCCCCCN
Outline: as §1

[7] = compound: C/C(=N\NC(=O)C1=CC(=CC=C1)S(=O)(=O)N2CCOCC2)/C3=C(C=CC(=C3)Cl)O
Outline: as §1

[8] = compound: C1=CC2=C(C=CC(=C2)/C=C\3/C(=O)NC(=NCC4=CC=CS4)S3)N=C1
Outline: as §1

[9] = compound: C1=CC=C2C(=C1)C3=NNC4=CC=CC(=C43)C2=O
Outline: as §1

[10] = compound: C1CCN(C1)C(=O)NC2=CC=CC(=C2)NC3=NC=C(C(=N3)NCCC4=CN=CN4)Br
Outline: as §1

[11] = compound: C1CN(CCC1(CC2=CC=C(C=C2)Cl)N)C3=NC=NC4=C3C=CN4
Outline: as §1

[12] = compound: CC(=O)c1cnc2ccc(-c3cc(Cl)c(O)c(Cl)c3)nc2c1N[C@H]1CC[C@H](CN(C)C)CC1
Outline: as §1

[13] = compound: CC1=C(C2=C(C=C1)C(=O)C3=CC=CC=C3N2CCCN)C
Outline: as §1

[14] = compound: C1=CC=C(C=C1)C2=NC(=C(N2)C3=CC=NC=C3)C4=CC(=C(C=C4)Cl)O
Outline: as §1

ralimetinib = compound: CC(C)(C)Cn1c(N)nc2ccc(-c3[nH]c(C(C)(C)C)nc3-c3ccc(F)cc3)nc21 [ralimetinib]
Outline: as §1

[15] = compound: CC(C)C[C@@H](C=O)NC(=O)[C@H](CC(C)C)NC(=O)[C@H](CC(C)C)NC(=O)OCc1ccccc1
Outline: as §1

Measured: log2 fold change

TRIM33 isoform 2 (UniProt Q9UPN9)
inactive: [1] -0.254 | [2] -0.144 | [3] 0.031

TRIT1 (UniProt Q9H3H1)
inactive: IRAK-1-4 Inhibitor I 0 | pinometostat 0.115

TPD52 isoform 3 (UniProt P55327)
inactive: [4] 0.01 | ibrutinib 0.164

TRPS1 isoform 2 (UniProt Q9UHF7)
inactive: erlotinib 0.23 | [5] 0.003 | [6] -0.101

TRIM14 (UniProt Q14142)
inactive: [3] 0.019

Reprinted from the listing (2 entries):
TRIM33 isoform 2 (UniProt Q9UPN9)
inactive: [1] -0.254 | [2] -0.144 | [3] 0.031

TRIT1 (UniProt Q9H3H1)
inactive: IRAK-1-4 Inhibitor I 0 | pinometostat 0.115

Following part:

TPD52L2 isoform 3 (UniProt O43399)
inactive: [7] 0.262 | [1] 0.007 | [8] 0.474 | [9] 0.065 | [10] 0.02 | [11] 0.066 | [12] -0.1 | [2] -0.07 | [3] -0.089 | [13] 0.161

TNXB isoform 4 (UniProt P22105)
inactive: IRAK-1-4 Inhibitor I -0.037 | pinometostat -0.132

TRUB2 (UniProt O95900)
inactive: erlotinib -0.404 | [1] -0.147 | [5] 0.195 | IRAK-1-4 Inhibitor I -0.148 | [2] 0.074 | [6] -0.207 | pinometostat -0.125

TRAF3 (UniProt Q13114)
inactive: [14] 0.03 | ralimetinib 0.13 | [15] -0.12

TSC1 (UniProt Q92574)
inactive: erlotinib 0.206 | [7] 0.063 | [5] -0.11 | [8] 0.357 | [14] -0.152 | [9] 0.144 | [10] -0.072 | [11] -0.228 | IRAK-1-4 Inhibitor I 0.174 | [12] -0.314 | ralimetinib -0.04 | [6] 0.018 | [15] 0.009 | pinometostat 0.224 | [13] 0.112

TROAP (UniProt Q12815)
inactive: [1] -0.066 | [4] 0.028 | [14] 0.131 | ibrutinib 0 | ralimetinib 0.408 | [2] -0.033 | [15] 0.189

TRPT1 isoform 4 (UniProt Q86TN4)
inactive: erlotinib 0.021 | [7] 0.065 | [5] -0.08 | [8] 0.021 | [14] 0.043 | [9] -0.062 | IRAK-1-4 Inhibitor I 0.11 | [12] -0.057 | ralimetinib 0.011 | [6] -0.054 | [15] 0.074 | pinometostat 0.033

TRIM23 (UniProt P36406)
inactive: erlotinib 0.006 | [5] 0.075 | [4] -0.096 | [14] 0.061 | [10] -0.202 | [11] 0.161 | IRAK-1-4 Inhibitor I 0.064 | ibrutinib 0.072 | ralimetinib -0.034 | [6] 0.146 | [15] -0.019 | pinometostat -0.024 | [13] 0.242

TRIQK (UniProt Q629K1)
inactive: [1] -0.023 | [4] 0.046 | [14] -0.077 | [10] -0.003 | [11] 0.097 | IRAK-1-4 Inhibitor I -0.059 | ibrutinib 0.007 | ralimetinib -0.011 | [2] -0.054 | [15] -0.004 | pinometostat 0.104 | [13] 0.114

TRAM2 (UniProt Q15035)
inactive: erlotinib 0.209 | [7] -0.024 | [5] -0.177 | [8] 0.091 | [4] 0.074 | [9] -0.061 | [10] 0.058 | [11] 0.124 | ibrutinib -0.165 | [12] -0.113 | [6] -0.251 | [13] 0.134
